Measured values from publication PMC6617940.
These are yes or no findings as the source states them, for the method shown. In cells and extracts the contact can be indirect. Some results given as binding are weak or reduced against the parent protein; the word gives no strength.

T1: Ubiquitin-like protein 4A (human (endogenous in PDAC cell lines SW1990, CFPAC-1, PANC-1, BxPC-3)) (UniProt P11441)
T1 sequence: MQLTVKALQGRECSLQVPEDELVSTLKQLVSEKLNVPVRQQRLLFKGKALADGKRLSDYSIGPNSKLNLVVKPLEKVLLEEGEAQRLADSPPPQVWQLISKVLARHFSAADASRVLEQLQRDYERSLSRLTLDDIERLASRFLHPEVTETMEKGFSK

T2: Lysosome associated membrane protein-1 (human (endogenous in PDAC cell lines SW1990, CFPAC-1, PANC-1, BxPC-3)) (UniProt P11279)
T2 sequence: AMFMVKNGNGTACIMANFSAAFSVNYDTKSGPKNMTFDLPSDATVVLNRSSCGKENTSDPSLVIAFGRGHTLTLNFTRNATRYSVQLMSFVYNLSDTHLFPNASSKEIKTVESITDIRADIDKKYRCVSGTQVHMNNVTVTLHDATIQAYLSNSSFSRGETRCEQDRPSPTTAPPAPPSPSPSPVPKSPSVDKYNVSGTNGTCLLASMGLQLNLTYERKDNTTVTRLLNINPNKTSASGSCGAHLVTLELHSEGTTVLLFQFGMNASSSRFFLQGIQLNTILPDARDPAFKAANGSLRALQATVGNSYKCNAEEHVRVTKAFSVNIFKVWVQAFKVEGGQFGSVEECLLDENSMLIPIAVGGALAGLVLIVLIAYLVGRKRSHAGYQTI

B1: Lysosome associated membrane protein-1 (protein, UniProt P11279-1 29-417)
chain: T2 sequence
B2: Ubiquitin-like protein 4A (protein, UniProt P11441 1-157)
chain: T1 sequence

What was measured:
[1] = molecular target: T1, Ubiquitin-like protein 4A (human (endogenous in PDAC cell lines SW1990, CFPAC-1, PANC-1, BxPC-3)); assay: co-IP; lysates of four PDAC cell lines (2 x 10^7 cells, polysome lysis buffer: 100 mM KCl, 4 mM MgCl2, 10 mM HEPES pH 7.0, 0.5% Nonidet P-40, 1 mM DTT); antibody (UBL4A or LAMP1) or control IgG on protein G agarose beads; lysate incubated with beads 2 h at RT; western blotting
[2] = molecular target: T2, Lysosome associated membrane protein-1 (human (endogenous in PDAC cell lines SW1990, CFPAC-1, PANC-1, BxPC-3)); assay: as above

Binder | binding [1] | binding [2]
B1 | binds | –
B2 | – | binds
